Where a name gives a salt, the structure may show the parent alone. ± gives the standard deviation of the averaged measurements. Some of the results follow. Part of the spread comes from offsets between plates or batches.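 The cells are a mouse kidney inner medullary collecting duct line, silenced either for the ciliary gene Rpgrip1l or with a non-targeting control siRNA.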
Tests used:
[1] = tested on: mIMCD3; assay: robust z score of cell number vs plate controls; higher = more cells (less cytotoxic); conditions: 10 µM, 48 h
[2] = tested on: mIMCD3; assay: robust z score of cilia incidence (% cells with single cilium) vs plate controls; higher = more ciliated cells; conditions: 10 µM; 48 h; siRNA: siScr
[3] = tested on: mIMCD3; assay: robust z score of cilia incidence (% cells with single cilium) vs plate controls; higher = more ciliated cells (rescue of cilia loss); conditions: 10 µM; 48 h; siRNA: siRpgrip1l

SMILES | robust z score of cell number ([1]; siRNA: siRpgrip1l) | robust z score of cell number ([1]; siRNA: siScr) | robust z score of cilia incidence [2] | robust z score of cilia incidence [3]
CCCCn1c(=O)c2[nH]c(C34CC5CC(CC3C5)C4)nc2n(CCCO)c1=O | -22.7 ± 12 | -35.4 ± 27 | -16.7 ± 3.2 | -46 ± 19
O=C(O)COCCN1CCN(C(c2ccccc2)c2ccc(Cl)cc2)CC1 (centres undefined) [Cetirizine dihydrochloride] | -4.13 ± 0.51 | -21.9 ± 18 | -3 ± 0.76 | -10.7 ± 0.83
CCn1ccnc1CC1COc2ccccc2O1 (centres undefined) [Imiloxan hydrochloride] | -7.55 ± 8.2 | -3 ± 4.3 | -8.54 ± 6 | -15.7 ± 9.8
CCN1CCC[C@H]1CNC(=O)c1cc(S(N)(=O)=O)ccc1OC [(S)-(-)-Sulpiride] | -1.44 ± 0.6 | 0.435 ± 0.96 | 0.267 ± 0.3 | -4.75 ± 1.4
Oc1nc(-c2ccc(C(F)(F)F)cc2)nc2c1CSCC2 | -14.3 ± 9.6 | -13.6 ± 4.2 | -1.3 ± 4.8 | -10.8 ± 5
CNC(=O)c1cc2c(cn1)[nH]c1ccccc12 | -8.95 ± 0.61 | -2.51 ± 6.8 | 1.87 ± 0.096 | -5.05 ± 5.6
CC(=Nc1ccccc1N)c1c(C)cc(=O)n(O)c1O | -24.9 ± 28 | -7.14 ± 4.7 | 7.46 ± 3.9 | -5.66 ± 4.1
Oc1cc(O)cc(/C=C/c2ccc(O)c(O)c2)c1 [Piceatannol] | -169 ± 190 | -40.4 ± 8.3 | -21.84 ± 0.2 | -363 ± 220
Cc1ccc(CC2(O)CCN(CCOc3ccc(O)cc3)CC2)cc1 | -21.7 ± 10 | -21.4 ± 5.7 | -28.8 ± 18 | -26.3 ± 16
COc1cc2c(Nc3ccc(NC(=O)c4ccccc4)cc3)ncnc2cc1OCCCN1CCOCC1 | -29.9 ± 15 | -27.6 ± 4.8 | -48.6 ± 39 | -34.5 ± 17
NCCCCCCCCCCNS(=O)(=O)c1cccc2c(Cl)cccc12 [A-7 hydrochloride] | -122 ± 97 | -83.1 ± 47 | -40.3 ± 8.6 | -42.9 ± 22
Cc1sc(N)c(C(=O)c2cccc(C(F)(F)F)c2)c1C | -102 ± 85 | -10.8 ± 0.35 | 1.76 ± 6.8 | -15.4 ± 5.1
C=C1/C(=C\C=C2/CCC[C@]3(C)[C@@H]([C@H](C)/C=C/[C@@H](O)C4CC4)CC[C@@H]23)C[C@@H](O)C[C@@H]1O [Calcipotriol] | -30.2 ± 28 | -14.4 ± 13 | -20.1 ± 21 | -20.9 ± 5.3
COc1cccc(CCc2ccccc2OCC[C@@H]2C[C@@H](O)CN2C)c1 | -29.5 ± 25 | -34.6 ± 20 | -110 ± 68 | -104 ± 88
Cc1ccc([N+](=O)[O-])cc1S(=O)(=O)N(C)C | -2.3 ± 2.8 | -0.00928 ± 1.4 | -2.34 ± 4.1 | -10.4 ± 4.1
FC(F)(F)c1ccc(/C=C/c2nc(COc3ccc(CCCCn4ccnn4)cc3)co2)cc1 | -34 ± 26 | -3.2 ± 6.8 | -0.483 ± 1 | -15.8 ± 9.1
Cc1noc(NS(=O)(=O)c2cccc3c(N(C)C)cccc23)c1C | -33 ± 40 | -3.24 ± 1.7 | -0.918 ± 3.3 | -159 ± 110
CCCCNc1c(C(=O)OCC)c(C)nc2c1cnn2CC [Tracazolate hydrochloride] | -28.1 ± 27 | -2.77 ± 2.7 | -3.9 ± 2 | -249 ± 150
O=C1c2ccccc2C(Cc2ccnc(F)c2)(Cc2ccnc(F)c2)c2ccccc21 | -6.93 ± 1.6 | -1.77 ± 2.3 | -1.06 ± 2.3 | -15.9 ± 11
CCc1ccc(OCc2ccccc2C(=O)Nc2ccc3nc(C)cc(N)c3c2)cc1 | -31.2 ± 10 | -138 ± 100 | -66.7 ± 16 | -56.3 ± 7
O=C(O)C1CCCN(CCC=C(c2ccccc2)c2ccccc2)C1 (centres undefined) | -7.31 ± 2.5 | 2.71 ± 2.5 | -0.307 ± 0.43 | -15.4 ± 3.2
CN1[C@@H](CC(=O)c2ccccc2)CCC[C@H]1C[C@H](O)c1ccccc1 [Lobeline hydrochloride] | 0.624 ± 2.4 | -4.98 ± 4.5 | -0.905 ± 4.6 | -7.28 ± 2.6
COCCCC/C(=N\OCCN)c1ccc(C(F)(F)F)cc1 [Fluvoxamine maleate] | -14.5 ± 7.9 | -3.98 ± 0.6 | -1.48 ± 0.87 | -22.55 ± 0.18
CN(CCCN1c2ccccc2CCc2ccccc21)CC(=O)c1ccc(Cl)cc1 [Lofepramine] | -17.3 ± 8.8 | -106 ± 92 | -30.3 ± 6.9 | -35.7 ± 1.2
CN1CCN2c3ncccc3Cc3ccccc3C2C1 (centres undefined) [Mirtazepine] | 7.31 ± 11 | 0.754 ± 6.3 | -5.6 ± 2.8 | -20 ± 9.4
COc1nccc(-c2c(-c3ccc(F)cc3)ncn2C2CCC(O)CC2)n1 (centres undefined) | -6.52 ± 4.4 | -2.82 ± 4.4 | -16.5 ± 9.3 | -46.8 ± 27

Retrieved by compound from the entries so far:
SMILES | robust z score of cell number ([1]; siRNA: siRpgrip1l) | robust z score of cell number ([1]; siRNA: siScr) | robust z score of cilia incidence [2] | robust z score of cilia incidence [3]
O=C(O)COCCN1CCN(C(c2ccccc2)c2ccc(Cl)cc2)CC1 (centres undefined) [Cetirizine dihydrochloride] | -4.13 ± 0.51 | -21.9 ± 18 | -3 ± 0.76 | -10.7 ± 0.83
Cc1ccc([N+](=O)[O-])cc1S(=O)(=O)N(C)C | -2.3 ± 2.8 | -0.00928 ± 1.4 | -2.34 ± 4.1 | -10.4 ± 4.1
